# Measurements as given in PubChem BioAssay AID493014 (National Center for Advancing Translational Sciences (NCATS), 2011).
# Out of some 340,000 compounds screened, about 170 (0.05%) were called active. The inconclusive results got no clear call from the source; some entries with a clear call stand among them for comparison. Calls follow the shape of the dose curve; as a rule, active = well fitted inhibition curve with a large enough effect in the signal ratio, with a control signal flat (not every such curve was filed as active); inconclusive = small, poorly fitted or top-dose-only effect, or effect the other way, or a change in a side signal; inactive = flat fitted curve, though single readings scatter; the % refers to the signal ratio. Potencies of inconclusive entries are doubtful fits and often do not repeat.
# Assay: qHTS Assay to Find Inhibitors of Chronic Active B-Cell Receptor Signaling;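 as to activity change, negative = inhibition: plate controls were basal doxycycline-induced cells for no effect and cells given 10 µM MG132 for full effect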
# Settings: ABC-DLBCL IkBa-CBG/CBR reporter, luminescence ratio (green luciferase fused to IkBa over red control in TMD8 lymphoma cells), 4 h; activity change, negative = inhibition: at 46.1 µM (top of the series)
# How it was run: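 Compounds up to 46 uM were incubated four hours with TMD8 cells whose green CBG68 luciferase is fused to IkappaBalpha; red CBR luminescence normalised the signal, and concentration-effect curves were fitted to fusion, red and ratio data.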
# Potency is read from the fitted curve at half-maximal effect.
Compound,Potency,"activity change, negative = inhibition"
Cc1scc(C(=O)NNC(=O)CCC(=O)O)c1C,"inconclusive: 35.5 µM [falling, single point]",–
O=C(Nc1ccc(-n2cccn2)cc1)C1CCCCN1Cc1cccc2c1OCO2 (stereo unspecified),"inconclusive: 11.2 µM [falling, partial curve]",–
COc1ccc(-n2nc(C(=O)Nc3ccc(OC)c(OC)c3)c3c4ccccc4n(C)c3c2=O)cc1,–,inconclusive: 1.06%
CC(N)C(=O)NC(C(=O)N1CCCC1C(=O)NC(c1ccccc1)c1ccccc1)C(C)C (stereo unspecified),–,inactive
Cc1cccc(NC(c2cccc(F)c2)c2ccc3ccc(C)nc3c2O)n1 (stereo unspecified),"inconclusive: 3.16 µM [falling, full curve]",–
O=C(NCc1ccco1)C1CCCN(S(=O)(=O)c2cnc[nH]2)C1 (stereo unspecified),–,inconclusive: 7.79%
COc1cccc(OCCSc2nnc3sc4ccccc4n23)c1,"inconclusive: 20.6 µM [falling, partial curve]",–
COc1ccccc1C(=O)ON=C1c2ccccc2-c2ccccc21,–,inconclusive: -7.13%
COc1nc(NC23CC4CC(CC(C4)C2)C3)nc(OC)n1,–,inactive
O=C(C[n+]1cc(-c2ccc(Cl)cc2)n2c1CCC2)Nc1nc(-c2ccc(F)cc2)cs1,"inconclusive: 15.8 µM [falling, partial curve]",–
COc1cccc(CN2CCN(Cc3cc4ccccc4[nH]3)CC2CCO)c1 (stereo unspecified),–,inconclusive: 7.05%
O=C(CSc1nnc(-c2ccccc2)c(-c2ccccc2)n1)N1CCc2ccccc21,–,inactive
O=C(NCc1ccco1)c1cccc(Nc2nc3ccc(Br)cc3[nH]2)c1,"inconclusive: 20.6 µM [falling, single point]",–
O=C(CSc1nnc2ccc(-c3cccnc3)nn12)Nc1ccc(F)cc1F,"inconclusive: 12.6 µM [falling, single point]",–
COc1ccc(CC(NC(C)=O)C(=O)NC2CCN(c3nc(C)cc(C)c3C#N)CC2)c(OC)c1 (stereo unspecified),–,inconclusive: -0.0069%
COc1ccc([N+](=O)[O-])cc1NC(C)C,–,inconclusive: -0.321%
Cc1cc(C)c2nc3nc(C)cc(C)c3c(N)c2c1,–,inconclusive: -3.49%
CC1CCN(CCCNC(=O)c2ccc(CSCc3cccc(Cl)c3)o2)CC1,"inconclusive: 32.6 µM [falling, single point]",–
COc1ccc(-c2cc(-c3nc4ccccn4c3NCc3ccccc3)ccc2OC)cc1,–,inconclusive: 5.25%
CCOn1c(=O)c(-c2cc3ccccc3o2)[n+]([O-])c2ccccc21,–,inconclusive: 14%
O=C(COc1ccc(Cl)cc1)NCCS(=O)(=O)N1CCN(c2ccccc2F)CC1,"inconclusive: 35.5 µM [falling, partial curve, poor fit]",–

# 2 of the compounds above, with tabs:
Compound	Potency	activity change, negative = inhibition
O=C(Nc1ccc(-n2cccn2)cc1)C1CCCCN1Cc1cccc2c1OCO2 (stereo unspecified)	inconclusive: 11.2 µM [falling, partial curve]	–
CC1CCN(CCCNC(=O)c2ccc(CSCc3cccc(Cl)c3)o2)CC1	inconclusive: 32.6 µM [falling, single point]	–
